Results: PubChem BioAssay AID504847 (National Center for Advancing Translational Sciences (NCATS), 2011)
Values joined by “and” are separate entries in the source; they are usually repeats but may differ in a detail not shown here. Equal values may be shown once. The whole screen tested about 400,000 compounds, of which about 3,700 (0.93%) were called active. Inconclusive means that the source gave no clear call. Such entries were picked first, then a sample of the others. Calls come from the whole dose curve; as a rule, active = well fitted inhibition curve with a large enough effect; inconclusive = small, poorly fitted or top-dose-only effect, or another doubt; inactive = no such curve, though single readings can be large or run the other way. Where the call is inconclusive, the potency comes from a doubtful curve fit.

Chains of the proteins cited; added tags and fusions are not shown. Lines headed by an entry give the natural chain unless they say otherwise; changes in a name come on top.
UniProt P11473: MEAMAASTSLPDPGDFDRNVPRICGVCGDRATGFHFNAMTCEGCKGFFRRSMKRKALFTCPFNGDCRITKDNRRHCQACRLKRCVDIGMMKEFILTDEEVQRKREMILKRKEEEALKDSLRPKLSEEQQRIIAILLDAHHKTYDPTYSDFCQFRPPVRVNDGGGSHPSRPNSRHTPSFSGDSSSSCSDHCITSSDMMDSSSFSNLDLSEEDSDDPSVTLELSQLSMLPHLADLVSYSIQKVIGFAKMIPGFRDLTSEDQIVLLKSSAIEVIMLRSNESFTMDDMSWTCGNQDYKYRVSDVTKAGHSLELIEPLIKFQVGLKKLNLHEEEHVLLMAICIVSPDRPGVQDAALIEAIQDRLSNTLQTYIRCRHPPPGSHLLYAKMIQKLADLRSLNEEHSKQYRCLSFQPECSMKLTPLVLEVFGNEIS

Biological target: Vitamin D3 receptor (Homo sapiens) (UniProt P11473)
Assay: Inhibitors of the vitamin D receptor (VDR): qHTS
Conditions: VDR-SRC2-3 peptide fluorescence polarization, 2 h; max response, negative = inhibition: active compounds read low
Method in brief: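 Inhibition of the VDR/SRC2-3 peptide interaction is quantified by fluorescence polarization. Compounds (23 nl, pintool) incubate with the reagents for 2 hours at ambient room temperature.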
% is set by controls: 0 for no effect and ±100 for the full control effect; potency is the fitted concentration of half-maximal effect.

| Compound | Potency | max response, negative = inhibition |
| --- | --- | --- |
| O=C1NC(=S)S/C1=C\c1cccc([N+](=O)[O-])c1 | inconclusive: 3.55 µM [inhibitor, partial curve, poor fit] | – |
| CCCCc1nc(SCC(=O)N2CCCCC2)c2c(=O)n(C)c(=O)n(C)c2n1 | inconclusive: 79.4 µM [inhibitor, partial curve] | – |
| O=C(COc1ccccc1Cl)NC(=S)Nc1ccccc1N1CCCC1 | – | inactive: 42.3% |
| CN(C)c1ccc(C(=C2C=CC(=[N+](C)C)C=C2)c2ccc(N(C)C)cc2)cc1 | active: 31.6 µM and active: 39.8 µM | – |
| CN1CCN(C(=O)CCNC(=O)Cn2cnc3ccccc3c2=O)CC1 | – | inactive: -16.1% |
| O=[N+]([O-])c1cc(S(=O)(=O)NCCN2CCOCC2)ccc1Sc1nnnn1-c1ccccc1 | – | inactive: -1.74% |
| CCC(=O)c1ccc2c(c1)N(CCCN1CCN(CCO)CC1)c1ccccc1S2 | inconclusive: 35.5 µM [inhibitor, partial curve, poor fit] | – |
| COc1ccc(NCc2ccccc2[N+](=O)[O-])cc1OC | inconclusive: 70.8 µM [inhibitor, single point] | – |
| O=C(Cc1cccs1)NCc1ccccc1F | inconclusive: 79.4 µM [inhibitor, partial curve, poor fit] | – |
| CCOc1cc(C(Nc2cc(C)ccn2)c2ccc3cccnc3c2O)ccc1OC (stereo not given) | active: 22.4 µM | – |
| CCCn1c(SCC(=O)Nc2nnc(C)s2)nnc1-c1ccoc1C | inconclusive: 56.2 µM [inhibitor, partial curve] | – |
| OCCN1CCN(c2nc(NCc3ccco3)c3ccccc3n2)CC1 | – | inactive: -14.9% |
| O=C(C1CCCN(Cc2cccc(Cl)c2)C1)N1CCCCC1 (stereo not given) | inconclusive: 89.1 µM [inhibitor, partial curve, poor fit] | – |
| COc1cc(-c2nc3ccccn3c2N)ccc1O | – | inactive: -11.4% |
| CCCCn1c(NC(=O)c2ccccc2Cl)c(C#N)c2nc3ccccc3nc21 | active: 44.7 µM | – |
| O=C(COc1ccc([N+](=O)[O-])cc1)Nc1ccc2c(c1)nc1n2CCOC1 | inconclusive: 28.2 µM [inhibitor, partial curve, poor fit] | – |
| O=C(CN1CCOCC1)Nc1ccc2c(c1)CCC2 | inconclusive: 14.1 µM [inhibitor, partial curve, poor fit] | – |
| O=C(c1ccccc1NS(=O)(=O)c1ccc(F)cc1)N1CCCCC1 | – | inactive: 5.68% |
| Cc1ncc(CO)c2c1Oc1nc(-c3ccccc3)nc(SCC(=O)N3CCCCC3)c1C2 | – | inactive: 7.29% and inactive: -25.9% |
| Cn1c(Cn2c(=O)sc3ccccc32)nnc1SCC(=O)NC1CCCC1 | – | inactive: -22.6% |
| CCN1CCN(C(=S)c2ccc(SC)cc2)CC1 | inconclusive: 89.1 µM [inhibitor, single point] | – |
| CCc1ccc(NC(=O)Cn2c(=O)c(CNc3ccccc3)cc3cc(OC)c(OC)cc32)cc1 | – | inactive: 9.26% |
| COc1ccc(C(=O)Nc2c(O)ccc3ccccc23)cc1OC | – | inactive: -1.3% |

| Compound | Potency | max response, negative = inhibition |
| --- | --- | --- |
| Cc1cc(C)cc(N(CC(=O)NCc2ccco2)S(=O)(=O)c2ccccc2)c1 | inconclusive: 89.1 µM [inhibitor, single point] | – |
| COc1ccc(C(C2C(=O)CC(C)(C)CC2=O)C2C(=O)CC(C)(C)CC2=O)cc1COCC(F)(F)F | active: 20 µM | – |
| CCc1nn2c(=O)cc(COC(=O)c3ccccc3NC(=O)COc3ccc(F)cc3)nc2s1 | – | inactive: 11% |
| O=S(=O)(c1ccccc1)N1CCC[C@@]2(CCN(Cc3cc(C(F)(F)F)cc(C(F)(F)F)c3)C2)C1 | inconclusive: 89.1 µM [inhibitor, single point] | – |
| Cc1cccc(NC(=O)CCN2CCCC(C)C2)c1 (stereo not given) | – | inactive: -7.29% |
| O=C(Cn1c(NCCO)nc2ccccc21)c1ccc(Cl)cc1Cl | inconclusive: 79.4 µM [inhibitor, partial curve] | – |
| CC12CCCC(O)(C1)C1CC(C)(C)C1CC2 (stereo not given) | – | inactive: -2.59% |
| Cc1ccc(NC(=O)Cc2nnc(SCC(=O)Nc3ccccc3)n2C)cc1 | inconclusive: 89.1 µM [inhibitor, single point] | – |
| O=c1cc(O)c(-c2cccc(C(F)(F)F)c2)c(Cl)[nH]1 | – | inactive: 13.8% |
| CN(CC(=O)N1CCN(c2ccccc2)CC1)C1CCCc2ccccc21 (stereo not given) | – | inactive: -25.7% |
| CCOC(=O)C(CC(=O)O)NCc1ccco1 (stereo not given) | – | inactive: -21.4% |
| CN(C)S(=O)(=O)Oc1ccccc1C(=O)Nc1ccc(F)cc1 | inconclusive: 25.1 µM [inhibitor, partial curve, poor fit] | – |
| CCOc1ccc(C(=O)CC(NCc2cccs2)C(=O)O)cc1 (stereo not given) | active: 25.1 µM | – |
| CN1Cc2sc(NC(=S)NC(=O)c3ccccc3)c(C#N)c2CC1(C)C | inconclusive: 89.1 µM [inhibitor, single point] | – |
| CCOc1cc(/C=C2\NC(=S)N(C)C2=O)ccc1OCc1ccc(C(=O)O)cc1 | inconclusive: 100 µM [inhibitor, single point] | – |
| Cc1ccc(NCN2C(=O)C3C4C=CC(C4)C3C2=O)cc1 (stereo not given) | inconclusive: 39.8 µM [inhibitor, partial curve, poor fit] | – |
| N#CC1=C(S)N(c2ccccc2)C(c2cccs2)NC1=O (stereo not given) | inconclusive: 22.4 µM [inhibitor, full curve, poor fit] | – |
| CC(C)CC(C(=O)O)N1C(=O)C2C3CC(C2C1=O)C1C(c2ccccc2)c2sc(=O)[nH]c2SC31 (stereo not given) | inconclusive: 56.2 µM [inhibitor, partial curve, poor fit] | – |
| CCOc1ccccc1NC(=O)COC(=O)CN(C)S(=O)(=O)c1ccc(C)cc1 | inconclusive: 56.2 µM [inhibitor, partial curve, poor fit] | – |
| CCN(CCCNC(=O)c1cc2c(=O)[nH]c3ccccc3c2s1)c1ccccc1 | inconclusive: 79.4 µM [inhibitor, partial curve, poor fit] | – |
| O=C(Nc1nc(-c2ccc(Br)cc2)ns1)c1ccc(F)cc1 | – | inactive: -1.69% |
| O=C(C=Cc1ccccc1)CC(c1ccccc1)N1CCOCC1 (stereo not given) | inconclusive: 12.6 µM [inhibitor, partial curve, poor fit] | – |

As entered above.
Value for Cc1cccc(NC(=O)CCN2CCCC(C)C2)c1 (stereo not given) under max response, negative = inhibition: inactive: -7.29%
Value for Cc1ncc(CO)c2c1Oc1nc(-c3ccccc3)nc(SCC(=O)N3CCCCC3)c1C2 under max response, negative = inhibition: inactive: 7.29% and inactive: -25.9%
